# Source: PubChem BioAssay AID504467 (National Center for Advancing Translational Sciences (NCATS), 2011)
# Screen size: about 330,000 compounds; about 7,700 (2.3%) were called active. Inconclusive means that the source gave no clear call. Such entries were picked first, then a sample of the others. Calls follow the shape of the dose curve; as a rule, active = well fitted inhibition curve with a large enough effect; inconclusive = small, poorly fitted or top-dose-only effect, or effect the other way; inactive = flat fitted curve, though single readings scatter. Where the call is inconclusive, the potency comes from a doubtful curve fit.
# Assay: qHTS screen for small molecules that inhibit ELG1-dependent DNA repair in human embryonic kidney (HEK293T) cells expressing luciferase-tagged ELG1; also: nearly all actives have a fitted effect of over 55% in size
# Settings: HEK293T ELG1-luciferase reporter, luminescence, 16 h, DNA damage induced by 5-fluorouridine; series mostly up to 46.1 µM
# Procedure, shortened: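 In this reporter screen, reduction of luminescence relative to DMSO vehicle indicated activity. Compounds and 5-fluorouridine were added together to 2,000 cells per well, incubated for 16 hr at 37 °C, then developed with ONE-Glo.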
# Potency is read from the fitted curve at half-maximal effect.
row,Compound,Potency
1,Nc1n[nH]c(N)c1N=Nc1ccc(Cl)cc1,"inconclusive: 23.1 µM [activator, single point]"
2,Cc1ccccc1NC(=S)c1ccc2ccccc2n1,"inconclusive: 13 µM [activator, partial curve]"
3,Cc1ccc(C(=O)Nc2cccc(N(C)S(C)(=O)=O)c2)cc1S(=O)(=O)Nc1ccccc1,"inconclusive: 23.1 µM [inhibitor, single point]"
4,O=C(NC1CCCCCC1)c1cccs1,"inconclusive: 13 µM [activator, partial curve, poor fit]"
5,CCOC(=O)c1c(C)c(C(=O)N2CCN(c3ccc(F)cc3)CC2)c(C)n1C,inactive
6,CCC(C)N1CC(C(=O)O)CC1=O (stereo not given),"inconclusive: 20.6 µM [activator, partial curve, poor fit]"
7,Cc1ccc2nc(NC(=S)NC(=O)c3cccs3)sc2c1,"inconclusive: 2.59 µM [activator, full curve]"
8,COc1cccc(C(=O)NC(=S)Nc2cccnc2)c1,"inconclusive: 16.4 µM [activator, partial curve]"
9,CCOP(=O)(OCC)c1nc(-c2cccc3ccccc23)oc1NCc1ccc(OC)cc1,"inconclusive: 20.6 µM [inhibitor, partial curve]"
10,COc1ccc(CNC(=O)c2noc(C)c2[N+](=O)[O-])cc1,inactive
11,Cn1c(=O)cc(SCC(=O)NCCC2=CCCCC2)c2cc(Cl)ccc21,"inconclusive: 16.4 µM [activator, partial curve, poor fit]"
12,Cc1ccc(C2CC(c3cccs3)=NN2C(=O)CSC2=NCCS2)cc1 (stereo not given),"inconclusive: 29.1 µM [inhibitor, single point]"
13,CC(NC(=O)CCC(=O)N1CCN(S(=O)(=O)c2ccc(Cl)cc2)CC1)c1ccccc1 (stereo not given),"inconclusive: 29.1 µM [inhibitor, partial curve, poor fit]"
14,O=C(NNc1nc2cc3c(cc2s1)OCCO3)c1ccc(F)cc1,"inconclusive: 13 µM [activator, single point]"
15,Cc1ccc(NC(=O)c2oc3ccccc3c2C)nc1,"inconclusive: 4.61 µM [activator, partial curve]"
16,CNC(=O)c1ccccc1Nc1ccc(SC(F)F)cc1,"inconclusive: 18.3 µM [activator, single point]"
17,Cc1ccc(-n2c(SCC(=O)Nc3ccc4cn[nH]c4c3)nnc2-c2ccco2)cc1,"inconclusive: 32.6 µM [inhibitor, single point]"
18,Cc1ccsc1C(=O)OCc1nnc(-c2ccccc2)o1,"inconclusive: 14.6 µM [activator, partial curve]"
19,Cc1cccc(N2C(=O)CCC2=O)c1,"inconclusive: 0.231 µM [inhibitor, single point]"
20,COC(=O)c1sc(NC(=O)CCCn2nc([N+](=O)[O-])cc2C)c(C(=O)OC)c1C,"inconclusive: 16.4 µM [inhibitor, partial curve]"
21,N#Cc1ccc(C(=O)Nc2nnc(-c3ccco3)o2)cc1,active: 16.4 µM
22,CCCn1nc(C(=O)NNC(=O)c2cccc(S(=O)(=O)NC(C)C)c2)c2ccccc2c1=O,"inconclusive: 29.1 µM [inhibitor, single point]"

# Sorted by molar mass (descending): four of the compounds above
row,Compound,Potency
22,CCCn1nc(C(=O)NNC(=O)c2cccc(S(=O)(=O)NC(C)C)c2)c2ccccc2c1=O,"inconclusive: 29.1 µM [inhibitor, single point]"
14,O=C(NNc1nc2cc3c(cc2s1)OCCO3)c1ccc(F)cc1,"inconclusive: 13 µM [activator, single point]"
15,Cc1ccc(NC(=O)c2oc3ccccc3c2C)nc1,"inconclusive: 4.61 µM [activator, partial curve]"
4,O=C(NC1CCCCCC1)c1cccs1,"inconclusive: 13 µM [activator, partial curve, poor fit]"

# (more compounds)

row,Compound,Potency
1,O=C(Nc1ccc(Cl)c(S(=O)(=O)N2CCOCC2)c1)[C@@H]1CCCN1C(=O)c1cccs1,inactive
2,CC(C(=O)N1CCN(c2ccc([N+](=O)[O-])cc2)CC1)N1C(=O)C2CC=CCC2C1=O (stereo not given),"inconclusive: 18.3 µM [inhibitor, single point]"
3,O=C(NCc1ccccc1Cl)c1ccc(S(=O)(=O)NCc2ccco2)cc1,inactive
4,CNC(=O)c1ccc(-c2ccccc2)s1,"inconclusive: 16.4 µM [activator, partial curve]"
5,COCCN(Cc1cc2cc3c(cc2nc1Cl)OCO3)C(=O)Nc1ccc(F)cc1,"inconclusive: 16.4 µM [inhibitor, partial curve]"
6,CC(C)NC(=O)c1sc2nc3c(c(-c4cccs4)c2c1N)CN(C)CC3,inactive
7,O=S(=O)(c1ccc(Br)cc1)N1CCCN(Cc2cccc(F)c2)CC1,inactive
8,O=C(CSc1nnc(-c2cccnc2)n1-c1ccccc1)N1CCN(c2ccc(F)cc2)CC1,"inconclusive: 10.3 µM [inhibitor, partial curve, poor fit]"
9,CCN(c1ccc(OCC(=O)OCC(=O)c2c(N)n(C)c(=O)n(C)c2=O)cc1)S(=O)(=O)c1ccccc1,"inconclusive: 1.03 µM [inhibitor, single point]"
10,CC1CN(C2=NC(=O)/C(=C3/C(=O)N(Cc4ccc(F)cc4)c4ccccc43)S2)CC(C)O1 (stereo not given),active: 11.6 µM
11,Cc1nnc2n1N=C(c1ccccc1)CS2,"inconclusive: 23.1 µM [activator, single point]"
12,Cc1ccc(S(=O)(=O)Nc2ccc(S(=O)(=O)Nc3nccs3)cc2)c([N+](=O)[O-])c1,inactive
13,Cc1ccc(NC(=O)COC(=O)C2CCC2)cc1S(=O)(=O)N1CCOCC1,inactive
14,C/C=C/C(=O)NCCc1ccc(OC)c(OC)c1,"inconclusive: 3.66 µM [activator, single point]"
15,CC1=C(c2ccc(C)cc2)[N+](=O)C(C)(C)N1[O-],"inconclusive: 13 µM [activator, partial curve]"
16,O=C(NCC(c1ccco1)N1CCc2ccccc21)c1c(F)cccc1F (stereo not given),"inconclusive: 3.26 µM [inhibitor, single point]"
17,Cc1ccc2c(c1)nnn2C1CCN(S(=O)(=O)c2ccc(C(=O)NC3CCCC3)cc2)CC1,active: 4.47 µM
18,CN(CC(=O)Nc1ccc(F)cc1)C(=O)c1cc(-c2cccs2)nn1-c1ccccc1,"inconclusive: 29.1 µM [inhibitor, single point]"
19,COc1ccc(Cl)cc1NC(=O)C(C)OC(=O)c1ccc(NS(=O)(=O)c2ccc3[nH]c(=O)[nH]c3c2)cc1 (stereo not given),active: 2.91 µM
20,COC(=O)c1cscc1S(=O)(=O)Cc1ccccc1,"inconclusive: 5.62 µM [activator, single point]"
21,O=C(NNS(=O)(=O)c1ccc(F)cc1)c1cnn(-c2ccccc2)c1C(F)(F)F,"inconclusive: 18.3 µM [inhibitor, partial curve]"
22,COc1cc(NC(=S)NC(=O)CCc2ccccc2)cc(OC)c1,"inconclusive: 18.3 µM [inhibitor, single point]"

row,Compound,Potency
1,Cc1cc(NC(=O)CCS(=O)(=O)c2nc(-c3ccccc3)cc(C(F)(F)F)n2)no1,"inconclusive: 29.1 µM [inhibitor, single point]"
2,Cc1cc(C(F)F)n2ncc(C(=O)NCc3ccccc3F)c2n1,"inconclusive: 0.103 µM [inhibitor, full curve, poor fit]"
3,CC(C)C1C(C#N)=C(N)Oc2n[nH]c(C(C)(C)C)c21 (stereo not given),"inconclusive: 10.3 µM [inhibitor, partial curve, poor fit]"
4,c1ccc(Nc2nc(-c3ccncc3)cs2)nc1,"inconclusive: 2.59 µM [activator, partial curve]"
5,CCC(C)c1ccc(N(C(=O)c2ccco2)C(C(=O)NC2CCCC2)c2cccnc2)cc1 (stereo not given),"inconclusive: 16.4 µM [activator, partial curve, poor fit]"
6,O=C(c1ccccc1)N1CCN(C(=O)c2ccc(OC(F)(F)F)cc2)CC1,"inconclusive: 23.1 µM [activator, partial curve, poor fit]"
7,Cc1ccc(N2CCCn3c2nc2c3c(=O)n(CC(=O)OCc3ccccc3)c(=O)n2C)cc1C,inactive
8,CCOc1ccc(N(CC(=O)Nc2ccccc2OC)S(=O)(=O)c2ccccc2)cc1,"inconclusive: 0.501 µM [inhibitor, single point]"
9,COc1ccc(C(C)=O)cc1CSc1ccccn1,"inconclusive: 23.1 µM [activator, partial curve, poor fit]"
10,CCc1cccc(NC(=O)C2CCCC2)c1,"inconclusive: 18.4 µM [activator, partial curve, poor fit]"
11,Cc1oc(-c2ccc(-c3ccccc3)cc2)nc1CN(C)C1CCOC1 (stereo not given),"inconclusive: 4.11 µM [activator, full curve]"
12,Cc1cccc(OCCC(=O)Nc2ccc(C)c(S(=O)(=O)N3CCOCC3)c2)c1,"inconclusive: 4.61 µM [inhibitor, single point]"
13,Cc1cc2c(cc1C)C(c1ccccc1OC(C)C)CC(=O)N2 (stereo not given),inactive
14,Cc1ccc(OCCNC(=O)CCNC(=O)c2ccc(Cl)cc2)cc1,inactive
15,COc1ccc(Br)cc1/C=N/Nc1cccc(C(=O)O)c1,"inconclusive: 16.4 µM [activator, partial curve]"
16,Cc1ccc2nc(-c3ccc(NC(=O)CCN4C(=O)c5ccccc5C4=O)cc3)sc2c1,"inconclusive: 0.731 µM [activator, full curve]"
17,Cc1cc(Cl)c(S(=O)(=O)N2CCN(c3ccccn3)CC2)cc1OCC(=O)NC1CCCCC1,active: 20.6 µM
18,CN(CCOc1ccc(Br)cc1)CC(=O)Nc1cccc(S(=O)(=O)NC2=NCCC2)c1,"inconclusive: 18.3 µM [inhibitor, partial curve, poor fit]"
19,CC(C)CN(C(=O)Cn1ccccc1=O)C1CCS(=O)(=O)C1 (stereo not given),"inconclusive: 20 µM [activator, single point]"
20,Cc1cc(NC(=O)CSc2nnc3c(C)cc4c(C)ccc(C)c4n23)no1,"inconclusive: 7.31 µM [inhibitor, partial curve]"
21,O=C(CNC(=O)c1ccccc1F)Nc1ccc2c(c1)CCC2,"inconclusive: 18.3 µM [activator, partial curve]"
